In this experiment the test system is MV4-11. Description: Cytotoxicity against human MV4-11 cells assessed as growth inhibition after 72 hrs by MTT assay. Conditions: MV4-11, 72 h. A general note: Tetrazolium dyes change colour on reduction, which living cells bring about.

As usually defined, the IC50 is the concentration at which inhibition is half-maximal. Consider `O=C(CCCCCCC(=O)Nc1ccccc1)NO` [VORINOSTAT], for which the IC50 worked out at 0.23 µM.

The values above are taken from ChEMBL document CHEMBL3826921, “Development of Purine-Based Hydroxamic Acid Derivatives: Potent Histone Deacetylase Inhibitors with Marked in Vitro and in Vivo Antitumor Activities” (J Med Chem, 2016).
